Our source for the cell number change and AC50 values is PubChem BioAssay AID2685 (National Center for Advancing Translational Sciences (NCATS), 2010).

The structures appear in SMILES notation. This is one part of the list. These are further read-outs of the screen, such as a control signal, another cell line or another target. No call is given for them. Most of these compounds were active or inconclusive in the main read-out, so they are no random draw. The note in brackets gives the kind of curve behind each potency; many fits are weak.

The experiment can be described thus: qHTS Assay for Lipid Storage Modulators in Drosophila S3 Cells.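 As to cell number change: cells counted by Cell Tracker Red CMTPX staining in the red channel.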 To be noted: BODIPY lipid droplet fluorescence, 18-24 h; for cell number change: measured here: cell count max response, cells fed with added oleic acid. In short, it runs like this:
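Drosophila S3 cells loaded with oleic acid (400 uM, as added) and compounds at several concentrations; lipid droplets imaged by 488-nm laser-scanning cytometry, 500–530 nm intensity and object ratio to cell channel. Percent activity normalized to 20 uM Triacsin C.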

[1] abbreviates: measured here: cell number channel AC50, cells fed with added oleic acid.
The mark [2] stands for this setting: measured here: lipid fluorescence (Fed channel) AC50, cells fed with added oleic acid.

For `Cc1ccc(NC(=S)NN(C)c2cc(C)nc(C)n2)cc1`, the cell number change is 16.7%.

For the compound `Cc1[nH]nc2ncc(C(=O)c3ccccc3O)cc12`, the cell number change came out at 0.488%.

Regarding `C=CCn1c(SCC(=O)NCc2ccccc2)nnc1C1CCCCC1`, the cell number change was -19.1%.

For the compound `Brc1ccc2[nH]c3nc(SCCN4CCOCC4)nnc3c2c1`, the AC50 under setting [1] was 0.082 µM [rising, full curve, poor fit] and the AC50 under setting [2] was 6.51 µM [rising, partial curve].

For the compound `CCCCCCCNC1=CC(=O)CC(c2ccccc2)C1` (stereo not drawn), the cell number change was -30%. The AC50 under setting [2] was 29.1 µM [falling, single point].

Consider `Cc1ccccc1-c1noc(C23CC4CC(CC(C4)C2)C3)n1`, for which the cell number change was found to be 12.4%. Also, the AC50 under setting [2] is 29.1 µM [falling, single point].

Turning to `Cc1cc(Cl)ccc1OCC(=O)NNC(=O)c1cccnc1`, the cell number change is -14.7%. Besides, the AC50 under setting [2] was 32.6 µM [falling, single point].

For the compound `CSc1nc(N)c2c(C)c(C)sc2n1`, the AC50 under setting [1] was 6.51 µM [rising, single point].

For the compound `Cc1nc2nc(C)c(CCC(=O)O)c(C)n2n1`, the cell number change was found to be 13.9%. For the same compound, the AC50 under setting [2] was 5.8 µM [falling, full curve].

Turning to `c1nc(N2CCC3(CC2)OCCO3)c2c3c(sc2n1)CCCC3`, the cell number change was -11.6%. Under setting [2], the AC50 was 0.411 µM [falling, full curve].

As to `COc1ccc(-n2c(Cn3c(=O)sc4ccccc43)nnc2SCC(N)=O)cc1`, the cell number change was 2.6%. Under setting [2], the AC50 is 0.146 µM [falling, full curve, poor fit].

Take `Cc1ccc(C(=O)CN(C(=O)c2ccc(Cl)c(Cl)c2)N2C(=O)C3C4C=CC(C4)C3C2=O)cc1` (stereo not drawn): the AC50 under setting [1] was 5.8 µM [falling, single point] and the concentration at half-maximal activity (AC50) under setting [2] was 6.51 µM [falling, single point].

Regarding `CCN1C(=O)[C@H]2[C@@H](c3ccc(C)cc3)N3C(=O)N(c4ccc(C)cc4)C(=O)[C@@]3(Cc3ccccc3)[C@H]2C1=O`, the cell number change is 13.9%.

Regarding `COc1ccc(Br)cc1/C=N/n1nnnc1N`, the cell number change amounted to 9.91%. Further, under setting [1], the AC50 was 1.84 µM [falling, partial curve].

Consider `C=CCN(CC(=O)NCc1ccccc1)C(=O)c1csnn1`, for which the cell number change was -12%. Moreover, the AC50 under setting [1] is 5.17 µM [falling, single point]. The AC50 under setting [2] is 0.0058 µM [falling, full curve, poor fit].

Regarding `O=C1CCC(/C=C/c2ccccc2)=NN1Cc1ccc(Cl)c(Cl)c1`, the cell number change was -19.7%.

In the case of `CC(C)(C)c1ccc(C(=O)NCCC(=O)NC2=NCCS2)cc1`, the cell number change was 4%. Also, the concentration at half-maximal activity (AC50) under setting [2] is 1.16 µM [falling, full curve, poor fit].

As to `O=C(Nc1nc2ccc(Cl)cc2s1)[C@@H]1CCCN1C(=O)c1cccs1`, the cell number change came out at 10.9%.

Turning to `Cc1cc(-c2nnc(SCC(=O)N3C(C)CCCC3C)o2)no1` (stereo not drawn), the cell number change is 58.8%. Further, the concentration at half-maximal activity (AC50) under setting [1] is 29.1 µM [rising, single point]. In addition, the AC50 under setting [2] was 29.1 µM [rising, single point].
